Measurements from US8653112B2, “Substituted pyrazoles as estrogen receptor ligands” (Karo Bio AB, priority 2009, dated 2014).
Some entries share one result that the patent states for a list of compounds.

Chains of the proteins cited; added tags and fusions are not shown. Residues count along the entry.
UniProt Q92731, 255-530: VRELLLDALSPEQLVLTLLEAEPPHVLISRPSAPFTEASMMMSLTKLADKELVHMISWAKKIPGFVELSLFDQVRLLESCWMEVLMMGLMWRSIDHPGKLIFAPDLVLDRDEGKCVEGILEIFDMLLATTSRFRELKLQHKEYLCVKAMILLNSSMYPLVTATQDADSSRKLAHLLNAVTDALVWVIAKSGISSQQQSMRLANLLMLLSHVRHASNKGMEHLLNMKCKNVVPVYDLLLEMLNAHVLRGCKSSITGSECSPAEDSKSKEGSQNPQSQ
UniProt Q92731, whole entry: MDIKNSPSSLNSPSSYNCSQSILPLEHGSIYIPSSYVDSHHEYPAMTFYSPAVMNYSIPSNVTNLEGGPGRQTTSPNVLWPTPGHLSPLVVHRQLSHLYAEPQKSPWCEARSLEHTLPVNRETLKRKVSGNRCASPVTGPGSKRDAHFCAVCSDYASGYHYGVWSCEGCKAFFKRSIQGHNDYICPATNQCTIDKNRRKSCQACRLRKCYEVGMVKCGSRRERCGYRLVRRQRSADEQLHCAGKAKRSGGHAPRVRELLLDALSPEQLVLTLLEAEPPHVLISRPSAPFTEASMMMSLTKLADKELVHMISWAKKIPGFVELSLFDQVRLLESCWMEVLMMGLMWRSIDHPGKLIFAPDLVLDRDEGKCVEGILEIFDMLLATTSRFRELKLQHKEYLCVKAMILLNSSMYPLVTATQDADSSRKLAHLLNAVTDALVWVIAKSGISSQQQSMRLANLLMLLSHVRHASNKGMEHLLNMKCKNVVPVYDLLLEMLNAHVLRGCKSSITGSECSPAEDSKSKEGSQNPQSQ

What follows are compounds tested against T1, human ERβ (ERβ-LBD) (Homo sapiens, UniProt Q92731) (assay: Binding assay 1: estrogen receptor binding assay (SPA, 3H-E2 displacement), ERβ). Conditions: binding assay 1, ERβ over ERα.
T1 construct: ERβ (ERβ-LBD, pET-N-AT #1, aa 255-530); biotinylation tag (in vivo biotinylated, pBirA co-expression); made in house; host or cells: E. coli BL21 (DE3) pBirA
Procedure: Binding Assay 1: Estrogen Receptor Binding Assay
The estrogen receptor ligand binding assays are designed as scintillation proximity assays (SPA), employing the use of tritiated estradiol (^3H-E2) and recombinant expressed biotinylated estrogen receptor binding domains. The binding domains of human ERα (ERα-LBD, pET-N-AT #1, aa 301-595) and ERβ (ERβ-LBD, pET-N-AT #1, aa 255-530) proteins are produced in E. coli ((BL21, (DE3), pBirA)) at 22 C in 2×LB medium supplemented with 50 uM biotin. After 3 h of IPTG induction (0.55 mM), cells are harvested by centrifugation at 7300×g for 15 min and cell pellets stored frozen in −20C. Extraction of ERα and ERβ are performed using 5 g of cells suspended in 50 mL of extraction buffer (50 mM Tris, pH 8.0, 100 mM KCl, 4 mM EDTA, 4 mM DDT and 0.1 mM PMSF). The cell suspension is run twice through a Microfluidizer M-110L (Microfluidics) and centrifuged at 15,000×g for 60 min. The supernatant is aliquoted and stored in −70C.
Dilute ERαLBD or ERβ-LBD extracts in assay buffer (18 mM K2HPO4, 2 mM KH2PO4, 20 mM NasMoO4, 1 mM EDTA, 1 mM TCEP) 1:676 and 1:517 for alpha and beta respectively. The diluted receptor concentrations should be 900 fmol/L. Preincubate the extracts with streptavidin coated polyvinyltoluene SPA beads (RPNQ0007, GE Healthcare) at a concentration of 0.43 mg/mL for 1 hr at room temperature.
Test compounds are evaluated over a range of concentrations from 157 μM to 37.5 pM. The test compound stock solutions should be made in 100% DMSO at 5× of the final concentration desired for testing in the assay. The amount of DMSO in the test wells of the 384 well plate will be 20%. Add 18 μl aliquots of test compounds to the assay plates followed by 35 μl of the preincubated receptor/SPA bead mix and finally add 35 μl of 3 nM ^3H-E2. Cover the plates with a plastic sealer, centrifuge for 1 minute at 1000 rpm and equilibrate over night on a shaker at room temperature. The following morning, centrifuge the plates 5 minutes at 2000 rpm and measure on a plate scintillation counter e.g. a PerkinElmer Microbeta 1450 Trilux.
For compounds able to displace 3[H]-E2 from the receptor an IC50-value (the concentration required to inhibit 50% of the binding of 3[H]-E2) is determined by a non-linear four parameter logistic model; b=((bmax−bmin)/(1+(1/IC50)S))+bmin I is added concentration of binding inhibitor, IC50 is the concentration of inhibitor at half maximal binding and S is a slope factor. The Microbeta-instrument generates the mean cpm (counts per minute) value/minute and corrects for individual variations between the detectors thus generating corrected cpm values.
`CCc1nn(-c2ccc(O)c(F)c2F)c(-c2c(C)noc2C)c1C=NO` (mixture of isomers) [Example 26, (E) or (Z)-1-(2,3-difluoro-4-hydroxyphenyl)-5-(3,5-dimethylisoxazol-4-yl)-3-ethyl-1H-pyrazole-4-carbaldehyde oxime] was tested, and the “selectivity for the estrogen receptor β-subtype over the α-subtype in the binding assay” value (“selectivity … in the binding assay” for short) was no less than 10. For `CCCc1nn(-c2ccc(O)cc2)c(-c2c(C)noc2C)c1C=NO` (single isomer, unassigned) [Example 4, 5-(3,5-dimethylisoxazol-4-yl)-1-(4-hydroxyphenyl)-3-propyl-1H-pyrazole-4-carbaldehyde oxime], the “selectivity … in the binding assay” value was no less than 10. `Cc1nn(-c2ccc(O)cc2F)c(-n2c(C)ccc2C)c1C(N)=NO` (single isomer, unassigned) [Example 6, 5-(2,5-dimethyl-1H-pyrrol-1-yl)-1-(2-fluoro-4-hydroxyphenyl)-N′-hydroxy-3-methyl-1H-pyrazole-4-carboximidamide] was tested, and the “selectivity … in the binding assay” value was no less than 10. With `Cc1noc(C)c1-c1c(-c2ccc(O)cc2)nn(C)c1C=NO` (single isomer, unassigned) [Example 12, 4-(3,5-dimethylisoxazol-4-yl)-3-(4-hydroxyphenyl)-1-methyl-1H-pyrazole-5-carbaldehyde oxime] the “selectivity … in the binding assay” value was no less than 10. For `Cc1noc(C)c1-c1c(C=NO)c(C(C)C)nn1-c1ccc(O)cc1` (single isomer, unassigned) [Example 18, 5-(3,5-dimethylisoxazol-4-yl)-1-(4-hydroxyphenyl)-3-isopropyl-1H-pyrazole-4-carbaldehyde oxime], the “selectivity … in the binding assay” value was no less than 10. With `CCc1nn(-c2ccc(O)cc2F)c(-c2c(C)noc2C)c1C=NO` (single isomer, unassigned) [Example 27, 5-(3,5-dimethylisoxazol-4-yl)-3-ethyl-1-(2-fluoro-4-hydroxyphenyl)-1H-pyrazole-4-carbaldehyde oxime] the “selectivity … in the binding assay” value was no less than 10. In the case of `Cc1nn(-c2ccc(O)cc2F)c(-c2c(C)noc2C)c1C=NO` (single isomer, unassigned) [Example 33, 5-(3,5-dimethylisoxazol-4-yl)-1-(2-fluoro-4-hydroxyphenyl)-3-methyl-1H-pyrazole-4-carbaldehyde oxime], the “selectivity … in the binding assay” value was no less than 10. `CCc1nn(-c2ccc(O)cc2)c(-n2c(C)ccc2C)c1C(N)=NO` (single isomer, unassigned) [Example 38, 5-(2,5-dimethyl-1H-pyrrol-1-yl)-3-ethyl-N′-hydroxy-1-(4-hydroxyphenyl)-1H-pyrazole-4-carboximidamide] was tested, and the “selectivity … in the binding assay” value was no less than 10. `Cc1cccc(C)c1-c1c(C=NO)c(C)nn1-c1ccc(O)cc1F` (single isomer, unassigned) [Example 39, 5-(2,6-dimethylphenyl)-1-(2-fluoro-4-hydroxyphenyl)-3-methyl-1H-pyrazole-4-carbaldehyde oxime] was tested, and the “selectivity … in the binding assay” value was no less than 10. `Cn1nc(-c2ccc(O)cc2)c(-c2c(F)cccc2F)c1C=NO` (single isomer, unassigned) [Example 44, 4-(2,6-difluorophenyl)-3-(4-hydroxyphenyl)-1-methyl-1H-pyrazole-5-carbaldehyde oxime] was tested, and the “selectivity … in the binding assay” value was no less than 10. In the case of `Cn1nc(-c2ccc(O)cc2)c(-c2c(Cl)cccc2Cl)c1C=NO` (single isomer, unassigned) [Example 45, 4-(2,6-dichlorophenyl)-3-(4-hydroxyphenyl)-1-methyl-1H-pyrazole-5-carbaldehyde oxime], the “selectivity … in the binding assay” value was no less than 10. `Cc1cc(C)n(-c2c(C(N)=NO)c(C)nn2-c2ccc(O)cc2C)c1` (single isomer, unassigned) [Example 56, 5-(3,5-dimethyl-1H-pyrrol-1-yl)-N′-hydroxy-1-(4-hydroxy-2-methylphenyl)-3-methyl-1H-pyrazole-4-carboximidamide] was tested, and the “selectivity … in the binding assay” value was no less than 10. For `Cc1csc(C)c1-c1c(-c2ccc(O)cc2F)nn(C)c1C(N)=NO` (single isomer, unassigned) [Example 58, 4-(2,4-dimethylthiophen-3-yl)-3-(2-fluoro-4-hydroxyphenyl)-N′-hydroxy-1-methyl-1H-pyrazole-5-carboximidamide], the “selectivity … in the binding assay” value was no less than 10. `Cc1noc(C)c1-c1c(-c2ccc(O)c(F)c2)nn(C)c1C=NO` (single isomer, unassigned) [Example 59, 4-(3,5-dimethylisoxazol-4-yl)-3-(3-fluoro-4-hydroxyphenyl)-1-methyl-1H-pyrazole-5-carbaldehyde oxime] was tested, and the “selectivity … in the binding assay” value was no less than 10. For `Cc1cc(O)ccc1-c1nn(C)c(/C=N/O)c1-c1c(C)noc1C` (single isomer, unassigned) [Example 63, (E)-4-(3,5-dimethylisoxazol-4-yl)-3-(4-hydroxy-2-methylphenyl)-1-methyl-1H-pyrazole-5-carbaldehyde oxime], the “selectivity … in the binding assay” value was no less than 10. With `Cc1cc(-c2c(-c3ccc(O)cc3C)nn(C)c2C(N)=NO)c(C)s1` (single isomer, unassigned) [Example 66, 4-(2,5-dimethylthiophen-3-yl)-N′-hydroxy-3-(4-hydroxy-2-methylphenyl)-1-methyl-1H-pyrazole-5-carboximidamide] the “selectivity … in the binding assay” value was no less than 10. For `Cc1cccc(C)c1-c1c(-c2ccc(O)cc2F)nn(C)c1C(N)=NO` (single isomer, unassigned) [Example 68, 4-(2,6-dimethylphenyl)-3-(2-fluoro-4-hydroxyphenyl)-N′-hydroxy-1-methyl-1H-pyrazole-5-carboximidamide], the “selectivity … in the binding assay” value was no less than 10.

Each compound was assayed against T2, human estrogen receptor beta (hERβ530) (Homo sapiens, UniProt Q92731) (assay: Transactivation assay 2: HEK 293 cells stably transfected with pERE2-ALP and human estrogen receptor beta). Conditions: transactivation assays 1 and 2, ERβ over ERα.
T2 construct: expressed in transfected cells; host or cells: HEK293 (CRL-1573)
Format: cell-based
With `CCCc1nn(-c2ccc(O)cc2)c(-c2c(C)noc2C)c1C(N)=NO` (single isomer, unassigned) [Example 5, 5-(3,5-dimethylisoxazol-4-yl)-N′-hydroxy-1-(4-hydroxyphenyl)-3-propyl-1H-pyrazole-4-carboximidamide] the “selectivity for the estrogen receptor β-subtype over the α-subtype in the transactivation assays” value (“selectivity … in the transactivation assays” for short) was no less than 50. `CCc1nn(-c2ccc(O)cc2)c(-c2c(C)noc2C)c1C(N)=NO` (single isomer, unassigned) [Example 20, (3,5-dimethylisoxazol-4-yl)-3-ethyl-N′-hydroxy-1-(4-hydroxyphenyl)-1H-pyrazole-4-carboximidamide] was tested, and the “selectivity … in the transactivation assays” value was no less than 50. For `CCc1nn(-c2ccc(O)cc2F)c(-c2c(C)noc2C)c1C(N)=NO` (single isomer, unassigned) [Example 24, 5-(3,5-dimethylisoxazol-4-yl)-3-ethyl-1-(2-fluoro-4-hydroxyphenyl)-N′-hydroxy-1H-pyrazole-4-carboximidamide], the “selectivity … in the transactivation assays” value was no less than 50. For `Cc1nn(-c2ccc(O)cc2F)c(-c2c(C)noc2C)c1C(N)=NO` (single isomer, unassigned) [Example 31, 5-(3,5-dimethylisoxazol-4-yl)-1-(2-fluoro-4-hydroxyphenyl)-N′-hydroxy-3-methyl-1H-pyrazole-4-carboximidamide], the “selectivity … in the transactivation assays” value was no less than 50. For `CCCc1nn(-c2ccc(O)cc2F)c(-c2c(C)noc2C)c1C(N)=NO` (single isomer, unassigned) [Example 32, 5-(3,5-dimethylisoxazol-4-yl)-1-(2-fluoro-4-hydroxyphenyl)-N′-hydroxy-3-propyl-1H-pyrazole-4-carboximidamide], the “selectivity … in the transactivation assays” value was no less than 50. In the case of `Cc1cnn(C)c1-c1c(C(N)=NO)c(C)nn1-c1ccc(O)cc1F` (single isomer, unassigned) [Example 36, 2-(2-fluoro-4-hydroxyphenyl)-N′-hydroxy-2′,4′,5-trimethyl-2H,2′H-3,3′-bipyrazole-4-carboximidamide], the “selectivity … in the transactivation assays” value was no less than 50.
